According to the supplement of paper PMC10849652:
Some of the results follow.

Protein sequences, listed by entry. Tags and fused reporters are not part of them. Lines headed by an entry give the natural chain unless they say otherwise; changes in a name come on top.
UniProt O15254: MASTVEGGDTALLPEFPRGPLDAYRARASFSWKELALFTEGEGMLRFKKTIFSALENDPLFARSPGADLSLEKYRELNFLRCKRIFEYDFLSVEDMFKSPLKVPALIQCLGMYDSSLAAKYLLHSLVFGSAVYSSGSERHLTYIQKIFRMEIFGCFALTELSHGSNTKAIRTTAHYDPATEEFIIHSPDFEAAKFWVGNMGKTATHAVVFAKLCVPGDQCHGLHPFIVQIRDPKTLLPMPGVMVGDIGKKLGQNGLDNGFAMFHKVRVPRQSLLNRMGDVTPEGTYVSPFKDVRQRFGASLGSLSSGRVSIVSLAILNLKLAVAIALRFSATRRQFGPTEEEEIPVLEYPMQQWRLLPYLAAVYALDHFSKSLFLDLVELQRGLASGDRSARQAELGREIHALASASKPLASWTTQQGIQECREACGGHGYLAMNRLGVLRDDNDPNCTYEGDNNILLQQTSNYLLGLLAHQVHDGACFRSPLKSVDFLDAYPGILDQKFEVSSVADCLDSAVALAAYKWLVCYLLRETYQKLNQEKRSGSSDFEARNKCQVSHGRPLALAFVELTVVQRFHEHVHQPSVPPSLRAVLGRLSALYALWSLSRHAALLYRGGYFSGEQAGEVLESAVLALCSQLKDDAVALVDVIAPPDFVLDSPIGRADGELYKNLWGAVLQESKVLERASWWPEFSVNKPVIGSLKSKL
UniProt Q02040: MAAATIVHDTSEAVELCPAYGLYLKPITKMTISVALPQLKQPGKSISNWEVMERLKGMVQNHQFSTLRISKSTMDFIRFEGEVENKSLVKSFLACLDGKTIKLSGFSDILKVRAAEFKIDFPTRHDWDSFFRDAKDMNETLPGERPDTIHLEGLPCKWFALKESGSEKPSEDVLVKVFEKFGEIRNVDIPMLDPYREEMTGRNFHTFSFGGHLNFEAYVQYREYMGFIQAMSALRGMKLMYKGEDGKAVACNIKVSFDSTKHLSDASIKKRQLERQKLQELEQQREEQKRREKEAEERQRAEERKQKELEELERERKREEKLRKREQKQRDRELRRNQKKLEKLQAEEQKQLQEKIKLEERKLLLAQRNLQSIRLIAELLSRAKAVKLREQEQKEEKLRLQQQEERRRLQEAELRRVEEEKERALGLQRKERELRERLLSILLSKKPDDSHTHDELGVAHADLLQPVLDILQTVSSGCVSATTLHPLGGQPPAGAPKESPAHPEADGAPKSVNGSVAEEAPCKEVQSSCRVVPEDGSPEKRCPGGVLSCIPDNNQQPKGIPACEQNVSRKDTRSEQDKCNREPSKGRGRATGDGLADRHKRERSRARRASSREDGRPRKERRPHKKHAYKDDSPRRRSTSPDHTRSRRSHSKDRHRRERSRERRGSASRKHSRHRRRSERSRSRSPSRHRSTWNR
UniProt Q6ZN18: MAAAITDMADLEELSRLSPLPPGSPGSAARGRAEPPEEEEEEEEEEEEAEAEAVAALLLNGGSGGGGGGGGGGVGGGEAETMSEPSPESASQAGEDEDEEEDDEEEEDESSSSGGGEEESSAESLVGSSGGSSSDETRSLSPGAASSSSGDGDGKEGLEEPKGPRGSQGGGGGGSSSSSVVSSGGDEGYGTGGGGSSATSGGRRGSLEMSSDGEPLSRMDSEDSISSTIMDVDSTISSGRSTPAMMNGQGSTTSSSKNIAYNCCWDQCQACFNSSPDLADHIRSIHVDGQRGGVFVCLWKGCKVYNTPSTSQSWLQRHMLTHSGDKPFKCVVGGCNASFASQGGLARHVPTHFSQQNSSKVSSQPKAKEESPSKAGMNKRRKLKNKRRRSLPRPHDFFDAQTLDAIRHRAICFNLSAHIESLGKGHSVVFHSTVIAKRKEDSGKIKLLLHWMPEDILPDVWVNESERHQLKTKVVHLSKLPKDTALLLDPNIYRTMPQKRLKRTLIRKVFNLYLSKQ
UniProt Q63HM1: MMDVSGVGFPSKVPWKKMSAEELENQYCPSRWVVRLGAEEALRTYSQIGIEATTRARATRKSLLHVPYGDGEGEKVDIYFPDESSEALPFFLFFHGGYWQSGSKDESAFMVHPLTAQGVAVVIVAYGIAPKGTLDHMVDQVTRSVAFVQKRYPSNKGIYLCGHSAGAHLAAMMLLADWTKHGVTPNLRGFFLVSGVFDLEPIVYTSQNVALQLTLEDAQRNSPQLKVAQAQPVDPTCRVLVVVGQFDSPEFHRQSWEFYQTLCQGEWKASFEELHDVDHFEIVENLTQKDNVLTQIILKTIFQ
UniProt Q8NHP1: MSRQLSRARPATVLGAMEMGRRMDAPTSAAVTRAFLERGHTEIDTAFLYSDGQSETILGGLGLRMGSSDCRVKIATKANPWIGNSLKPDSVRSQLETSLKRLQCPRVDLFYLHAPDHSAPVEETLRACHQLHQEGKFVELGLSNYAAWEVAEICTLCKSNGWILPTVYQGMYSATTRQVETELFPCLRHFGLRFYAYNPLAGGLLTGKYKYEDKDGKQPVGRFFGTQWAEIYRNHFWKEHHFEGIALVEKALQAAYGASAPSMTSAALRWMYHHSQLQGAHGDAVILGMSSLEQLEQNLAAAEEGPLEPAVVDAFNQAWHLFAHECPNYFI
UniProt Q9NZD4: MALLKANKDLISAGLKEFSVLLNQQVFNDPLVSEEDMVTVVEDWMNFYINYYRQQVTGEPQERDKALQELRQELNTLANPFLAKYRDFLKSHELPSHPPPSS
UniProt Q9UKU0: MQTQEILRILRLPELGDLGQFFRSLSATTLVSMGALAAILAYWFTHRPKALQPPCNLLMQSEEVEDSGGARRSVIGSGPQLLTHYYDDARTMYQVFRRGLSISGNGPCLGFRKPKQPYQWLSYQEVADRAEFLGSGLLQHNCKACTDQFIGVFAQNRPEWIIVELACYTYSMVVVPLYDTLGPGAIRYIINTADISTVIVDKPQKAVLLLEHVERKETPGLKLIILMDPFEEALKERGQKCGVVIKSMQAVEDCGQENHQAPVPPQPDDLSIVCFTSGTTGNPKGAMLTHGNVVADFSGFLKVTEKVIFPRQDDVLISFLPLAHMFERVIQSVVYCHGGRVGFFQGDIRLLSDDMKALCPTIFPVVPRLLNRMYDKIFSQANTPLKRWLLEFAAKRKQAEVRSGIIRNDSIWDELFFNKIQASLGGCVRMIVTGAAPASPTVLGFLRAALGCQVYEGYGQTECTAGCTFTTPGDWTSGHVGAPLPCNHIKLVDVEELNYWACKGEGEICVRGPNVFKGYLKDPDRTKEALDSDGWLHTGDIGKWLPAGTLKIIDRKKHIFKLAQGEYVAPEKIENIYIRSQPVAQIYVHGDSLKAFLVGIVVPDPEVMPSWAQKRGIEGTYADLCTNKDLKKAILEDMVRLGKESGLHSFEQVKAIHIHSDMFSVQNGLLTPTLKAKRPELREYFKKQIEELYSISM
UniProt Q04828: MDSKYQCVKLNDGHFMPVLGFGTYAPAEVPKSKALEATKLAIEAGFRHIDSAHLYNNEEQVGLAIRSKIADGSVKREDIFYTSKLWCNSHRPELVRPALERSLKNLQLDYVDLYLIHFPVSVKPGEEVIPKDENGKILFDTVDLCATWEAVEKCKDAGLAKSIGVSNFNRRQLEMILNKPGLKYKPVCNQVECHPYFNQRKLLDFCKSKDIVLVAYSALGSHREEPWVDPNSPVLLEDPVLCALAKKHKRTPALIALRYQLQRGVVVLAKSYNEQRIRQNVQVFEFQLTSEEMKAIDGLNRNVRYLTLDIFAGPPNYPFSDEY
UniProt P51828: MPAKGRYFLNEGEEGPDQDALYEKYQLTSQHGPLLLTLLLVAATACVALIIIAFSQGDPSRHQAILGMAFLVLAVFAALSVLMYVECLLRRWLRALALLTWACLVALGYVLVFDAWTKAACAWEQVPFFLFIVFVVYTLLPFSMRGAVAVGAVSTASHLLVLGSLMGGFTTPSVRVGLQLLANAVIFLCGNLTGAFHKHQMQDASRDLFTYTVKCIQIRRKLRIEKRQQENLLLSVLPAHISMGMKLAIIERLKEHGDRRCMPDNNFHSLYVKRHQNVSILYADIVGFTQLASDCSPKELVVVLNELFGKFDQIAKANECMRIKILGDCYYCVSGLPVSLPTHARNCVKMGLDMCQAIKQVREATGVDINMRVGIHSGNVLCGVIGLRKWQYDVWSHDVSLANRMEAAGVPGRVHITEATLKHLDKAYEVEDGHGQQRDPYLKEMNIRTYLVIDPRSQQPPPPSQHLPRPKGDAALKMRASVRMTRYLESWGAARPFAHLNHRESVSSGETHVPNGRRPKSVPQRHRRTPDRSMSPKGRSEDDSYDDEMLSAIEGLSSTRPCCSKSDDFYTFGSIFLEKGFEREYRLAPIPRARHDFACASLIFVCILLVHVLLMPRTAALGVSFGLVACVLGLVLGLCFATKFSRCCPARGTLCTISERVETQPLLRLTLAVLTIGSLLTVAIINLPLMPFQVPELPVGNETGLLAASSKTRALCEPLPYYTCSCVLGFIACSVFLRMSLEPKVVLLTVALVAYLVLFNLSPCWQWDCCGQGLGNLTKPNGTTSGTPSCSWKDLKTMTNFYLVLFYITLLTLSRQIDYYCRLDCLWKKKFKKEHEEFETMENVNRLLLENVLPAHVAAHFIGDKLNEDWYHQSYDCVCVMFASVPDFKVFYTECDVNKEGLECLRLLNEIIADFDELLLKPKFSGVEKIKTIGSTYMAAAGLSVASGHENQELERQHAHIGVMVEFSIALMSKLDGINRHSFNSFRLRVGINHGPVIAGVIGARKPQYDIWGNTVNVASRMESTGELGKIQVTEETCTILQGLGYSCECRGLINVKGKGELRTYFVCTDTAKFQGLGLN
UniProt P51825: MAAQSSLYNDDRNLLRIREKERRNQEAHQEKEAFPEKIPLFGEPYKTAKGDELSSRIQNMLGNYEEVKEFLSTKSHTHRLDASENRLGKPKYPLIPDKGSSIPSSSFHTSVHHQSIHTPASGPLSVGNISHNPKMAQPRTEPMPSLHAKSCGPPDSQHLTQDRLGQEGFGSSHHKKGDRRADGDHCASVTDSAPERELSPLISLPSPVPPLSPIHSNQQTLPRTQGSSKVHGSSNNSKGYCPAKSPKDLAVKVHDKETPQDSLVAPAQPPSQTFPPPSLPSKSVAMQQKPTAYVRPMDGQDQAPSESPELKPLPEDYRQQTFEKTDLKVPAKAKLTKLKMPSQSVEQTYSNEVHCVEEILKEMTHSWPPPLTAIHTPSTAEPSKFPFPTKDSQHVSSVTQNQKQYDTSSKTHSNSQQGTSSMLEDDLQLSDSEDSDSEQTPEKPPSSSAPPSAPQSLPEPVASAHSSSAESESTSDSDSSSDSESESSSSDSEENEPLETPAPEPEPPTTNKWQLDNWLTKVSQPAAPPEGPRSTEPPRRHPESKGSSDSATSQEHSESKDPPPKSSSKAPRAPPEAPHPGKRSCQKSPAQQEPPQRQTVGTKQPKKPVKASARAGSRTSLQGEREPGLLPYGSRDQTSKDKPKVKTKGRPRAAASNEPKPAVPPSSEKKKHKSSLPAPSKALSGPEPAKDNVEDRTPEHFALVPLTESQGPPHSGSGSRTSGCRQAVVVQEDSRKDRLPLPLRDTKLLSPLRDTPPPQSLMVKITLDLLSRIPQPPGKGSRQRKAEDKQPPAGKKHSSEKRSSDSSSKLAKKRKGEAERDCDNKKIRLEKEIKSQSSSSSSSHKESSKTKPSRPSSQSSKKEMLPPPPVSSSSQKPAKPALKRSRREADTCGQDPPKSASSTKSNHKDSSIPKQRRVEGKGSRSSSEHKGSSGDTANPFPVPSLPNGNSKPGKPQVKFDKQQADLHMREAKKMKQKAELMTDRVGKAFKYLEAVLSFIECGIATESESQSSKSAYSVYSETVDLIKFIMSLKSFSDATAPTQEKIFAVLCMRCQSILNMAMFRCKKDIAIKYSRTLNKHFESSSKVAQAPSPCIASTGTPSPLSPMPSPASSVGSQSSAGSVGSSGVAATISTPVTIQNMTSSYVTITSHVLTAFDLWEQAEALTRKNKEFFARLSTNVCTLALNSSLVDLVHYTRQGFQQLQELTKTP
UniProt Q86TW2: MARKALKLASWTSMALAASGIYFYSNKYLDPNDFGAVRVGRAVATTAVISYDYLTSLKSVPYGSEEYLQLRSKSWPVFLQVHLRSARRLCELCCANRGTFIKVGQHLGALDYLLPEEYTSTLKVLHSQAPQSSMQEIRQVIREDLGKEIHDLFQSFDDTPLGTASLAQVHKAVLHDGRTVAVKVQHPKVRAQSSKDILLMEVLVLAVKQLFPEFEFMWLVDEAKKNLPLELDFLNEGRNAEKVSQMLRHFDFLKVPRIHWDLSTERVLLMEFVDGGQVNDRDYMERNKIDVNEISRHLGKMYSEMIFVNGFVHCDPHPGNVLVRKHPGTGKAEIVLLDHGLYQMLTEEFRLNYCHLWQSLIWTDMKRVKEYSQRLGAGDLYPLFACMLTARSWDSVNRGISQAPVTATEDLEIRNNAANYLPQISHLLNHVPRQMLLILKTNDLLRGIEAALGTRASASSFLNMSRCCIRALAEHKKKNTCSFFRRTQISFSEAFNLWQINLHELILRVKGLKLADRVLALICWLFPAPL

What was measured:
Assay in all cases: log2 fold change, soluble protein after heating vs DMSO (PISA); higher = thermal stabilisation; K562 lysate, 10 uM; active = over 0.2 and 3.5 SD of the protein, either way, in both replicates (recomputed)
entospletinib = compound: c1cn2cc(-c3ccc4cn[nH]c4c3)nc(Nc3ccc(N4CCOCC4)cc3)c2n1 [entospletinib]
Summary of the method: (§1)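 Soluble protein was defined as the supernatant remaining after 21,000xg for 90 min, following pooling of heated aliquots and adjustment to 0.5% NP-40 at 4°C. Before that, crude K562 extract at 1 mg/mL protein in PBS pH 7.4 with 1 mM MgCl2 was treated with 10 μM compound for 30 min and heated for 3 min across 48°C-58°C. Quantification used TMTpro 16plex LC-MS/MS with channel sums equalised, and values are log-two fold changes in thermal stability relative to solvent controls from duplicates.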

vorinostat = compound: O=C(CCCCCCC(=O)Nc1ccccc1)NO [vorinostat]
Summary of the method: as §1

silmitasertib = compound: O=C(O)c1ccc2c(c1)nc(Nc1cccc(Cl)c1)c1ccncc12 [silmitasertib]
Summary of the method: as §1

[1] = compound: O=C1NC(=O)C(c2cnc3ccccn23)=C1c1cn2c3c(cc(F)cc13)CN(C(=O)N1CCCCC1)CC2
Summary of the method: as §1

[2] = compound: NCC(=O)Nc1ccc(-n2nc(C(F)(F)F)cc2-c2ccc3c(ccc4ccccc43)c2)cc1
Summary of the method: as §1

| Target | log2 fold change (entospletinib) | log2 fold change (vorinostat) | log2 fold change (silmitasertib) | log2 fold change [1] | log2 fold change [2] |
| --- | --- | --- | --- | --- | --- |
| ACOX3 (UniProt O15254) | inactive: -0.011 |  |  |  |  |
| ACSL5 isoform 3 (UniProt Q9ULC5) |  | inactive: -0.136 | inactive: 0.082 | inactive: -0.037 |  |
| ADAM15 (UniProt Q13444) |  | inactive: 0.085 | inactive: 0.055 | inactive: 0.004 |  |
| ADD1 isoform 4 (UniProt P35611) | inactive: 0.056 | inactive: 0.237 | inactive: -0.148 |  | inactive: 0.037 |
| AKAP17A (UniProt Q02040) |  | inactive: -0.479 | inactive: 0.321 | inactive: -0.057 |  |
| AEBP2 (UniProt Q6ZN18) |  | inactive: 0.138 | inactive: 0.019 | inactive: -0.019 |  |
| ADD2 isoform 9 (UniProt P35612) | inactive: -0.022 | inactive: -0.172 | inactive: 0.126 |  | inactive: 0.074 |
| ACTB (UniProt C9JTX5) |  |  |  | inactive: -0.098 | inactive: 0.185 |
| AFMID isoform 2 (UniProt Q63HM1) | inactive: 0.021 |  |  | inactive: -0.118 | inactive: -0.015 |
| ACP5 (UniProt P13686) |  | inactive: -0.053 | inactive: -0.125 |  |  |
| AKAP10 (UniProt O43572) | inactive: -0.026 | inactive: -0.429 | inactive: -0.047 | inactive: -0.09 |  |
| ADCY3 (UniProt O60266) |  | inactive: -0.063 | inactive: -0.042 |  |  |
| AKR7L (UniProt Q8NHP1) |  |  |  | inactive: 0.031 |  |
| ADAMTSL4 isoform 3 (UniProt Q6UY14) |  | inactive: 0.134 | inactive: -0.009 | inactive: 0.117 |  |
| AHSP (UniProt Q9NZD4) | inactive: 0.039 |  |  |  | inactive: 0.033 |
| AFAP1L1 (UniProt Q8TED9) | inactive: 0.003 | inactive: 0.03 | inactive: -0.019 | inactive: -0.087 |  |
| ADD3 isoform 2 (UniProt Q9UEY8) |  |  |  | inactive: 0.008 |  |
| ACTG1 (UniProt K7EM38) | inactive: -0.453 |  |  |  |  |
| ACSL6 isoform 1 (UniProt Q9UKU0) |  | inactive: -0.294 | inactive: 0.188 |  |  |
| AFM (UniProt P43652) | inactive: 0.061 |  |  |  | inactive: -0.11 |

Copied from the list.
Value of AKAP10 (UniProt O43572) under log2 fold change (vorinostat): inactive: -0.429
Value of ADD2 isoform 9 (UniProt P35612) under log2 fold change (vorinostat): inactive: -0.172

(list continues)

| Target | log2 fold change (entospletinib) | log2 fold change (vorinostat) | log2 fold change (silmitasertib) | log2 fold change [1] | log2 fold change [2] |
| --- | --- | --- | --- | --- | --- |
| AKR1C1 (UniProt Q04828) | inactive: 0.026 | inactive: -0.48 | inactive: 0.133 |  | inactive: 0.018 |
| ADCY7 (UniProt P51828) |  | inactive: -0.45 | inactive: 0.051 |  |  |
| AIMP2 isoform 2 (UniProt Q13155) |  |  |  | inactive: -0.07 |  |
| ACTR8 (UniProt Q9H981) | inactive: 0.083 | inactive: -0.298 | inactive: 0.092 |  |  |
| AFF1 isoform 2 (UniProt P51825) | inactive: -0.064 | inactive: -0.074 | inactive: -0.046 | inactive: -0.046 | inactive: 0.019 |
| AHCTF1 isoform 2 (UniProt Q8WYP5) |  | inactive: 0.106 | inactive: 0 |  |  |
| ADAD1 (UniProt Q96M93) | inactive: -0.028 |  |  |  | inactive: -0.001 |
| ADCK5 (UniProt Q3MIX3) | inactive: 0.092 |  |  | inactive: 0.017 |  |
| AGPAT4 (UniProt Q9NRZ5) | inactive: 0.224 | inactive: -0.016 | inactive: -0.022 | inactive: -0.023 |  |
| ADCK1 (UniProt Q86TW2) | inactive: 0.13 |  |  |  | inactive: 0.277 |
| AHI1 (UniProt Q8N157) | inactive: 0.08 | inactive: 0.084 | inactive: 0.066 |  | inactive: 0.019 |
| ADPRM (UniProt Q3LIE5) | inactive: -0.114 |  |  | inactive: 0.233 | inactive: 0.135 |
| ACSS1 (UniProt Q9NUB1) | inactive: -0.019 |  |  | inactive: -0.036 |  |
| ACTR3B (UniProt Q9P1U1) | inactive: -0.036 | inactive: 0.042 | inactive: 0.047 | inactive: 0.118 | inactive: 0.044 |
| AJUBA (UniProt Q96IF1) |  |  |  | inactive: -0.024 |  |
| AFDN (UniProt H0Y948) |  |  |  | inactive: 0.233 |  |
| ACSL1 (UniProt P33121) | inactive: -0.027 | active: -0.221 | inactive: 0.138 | inactive: -0.031 | inactive: -0.092 |
| AFG1L (UniProt Q8WV93) | inactive: -0.016 | inactive: -0.334 | inactive: 0.138 | inactive: 0.082 |  |
| ACTN4 (UniProt K7EJH8) | inactive: 0.06 |  |  | inactive: -0.028 |  |
